Laboratory results published in the supplement of paper PMC8612539.
≈ marks a conversion by molar mass, not a printed value. This continues a long series; more values of the same kind are listed elsewhere.

Test system: Escherichia coli
Assay: minimum inhibitory concentration (MIC)
Method: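 Broth microdilution MIC (Sensititre BOPO7F bovine plate, CLSI methods) of 19 antimicrobials against field isolates of P. multocida, M. haemolytica, H. somni (deep nasopharyngeal swabs) and E. coli, Enterococcus spp. (rectal swabs) from weaned dairy heifers. Incubation 16-24 h at 35 C. MIC is the lowest concentration preventing visible growth. Values with <= or > lie at the tested range limits. Trimethoprim-sulfamethoxazole is given as the trimethoprim component of a 1:19 mixture.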

CS(=O)(=O)c1ccc([C@@H](O)[C@@H](CF)NC(=O)C(Cl)Cl)cc1 [Florfenicol]
Details | minimum inhibitory concentration [µg/mL]
isolate (source animal id): 1 | 4 (≈ 11.2 µM)
isolate (source animal id): 2 | > 8
isolate (source animal id): 3 | 4 (≈ 11.2 µM)
isolate (source animal id): 4 | > 8
isolate (source animal id): 5 | > 8
isolate (source animal id): 6 | > 8
isolate (source animal id): 7 | > 8
isolate (source animal id): 17 | > 8
isolate (source animal id): 18 | > 8
isolate (source animal id): 19 | 2 (≈ 5.58 µM)
isolate (source animal id): 20 | > 8
isolate (source animal id): 21 | > 8
isolate (source animal id): 22 | 4 (≈ 11.2 µM)
isolate (source animal id): 23 | 4 (≈ 11.2 µM)
isolate (source animal id): 24 | > 8
isolate (source animal id): 25 | > 8
isolate (source animal id): 26 | 4 (≈ 11.2 µM)
isolate (source animal id): 27 | > 8
isolate (source animal id): 28 | 4 (≈ 11.2 µM)
isolate (source animal id): 29 | > 8
isolate (source animal id): 30 | > 8
isolate (source animal id): 31 | > 8
isolate (source animal id): 32 | > 8
isolate (source animal id): 33 | > 8
isolate (source animal id): 34 | > 8
isolate (source animal id): 35 | > 8
isolate (source animal id): 36 | > 8
isolate (source animal id): 37 | > 8
isolate (source animal id): 38 | 4 (≈ 11.2 µM)
isolate (source animal id): 39 | > 8
isolate (source animal id): 40 | > 8
isolate (source animal id): 41 | > 8
isolate (source animal id): 42 | > 8
isolate (source animal id): 43 | > 8
isolate (source animal id): 44 | 4 (≈ 11.2 µM)
isolate (source animal id): 45 | > 8
isolate (source animal id): 46 | > 8
isolate (source animal id): 47 | > 8
isolate (source animal id): 48 | > 8
isolate (source animal id): 49 | > 8
isolate (source animal id): 50 | > 8
isolate (source animal id): 51 | > 8
isolate (source animal id): 52 | 2 (≈ 5.58 µM)
isolate (source animal id): 53 | > 8
isolate (source animal id): 54 | 4 (≈ 11.2 µM)
isolate (source animal id): 55 | > 8
isolate (source animal id): 56 | 4 (≈ 11.2 µM)
isolate (source animal id): 57 | > 8
isolate (source animal id): 58 | > 8
isolate (source animal id): 59 | > 8
isolate (source animal id): 60 | > 8
isolate (source animal id): 61 | > 8
isolate (source animal id): 62 | > 8
isolate (source animal id): 63 | > 8
isolate (source animal id): 64 | > 8
isolate (source animal id): 65 | > 8
isolate (source animal id): 66 | > 8
isolate (source animal id): 67 | > 8
isolate (source animal id): 68 | 4 (≈ 11.2 µM)
isolate (source animal id): 69 | > 8
isolate (source animal id): 70 | > 8
isolate (source animal id): 71 | > 8
isolate (source animal id): 72 | > 8
isolate (source animal id): 73 | 4 (≈ 11.2 µM)
isolate (source animal id): 74 | > 8
isolate (source animal id): 75 | > 8
isolate (source animal id): 76 | > 8
isolate (source animal id): 77 | > 8
isolate (source animal id): 78 | > 8
isolate (source animal id): 79 | > 8
isolate (source animal id): 80 | 2 (≈ 5.58 µM)
isolate (source animal id): 81 | > 8
isolate (source animal id): 82 | > 8
isolate (source animal id): 83 | > 8
isolate (source animal id): 84 | > 8
isolate (source animal id): 85 | 4 (≈ 11.2 µM)
isolate (source animal id): 86 | > 8
isolate (source animal id): 87 | > 8
isolate (source animal id): 88 | > 8
isolate (source animal id): 89 | > 8
isolate (source animal id): 90 | > 8
isolate (source animal id): 91 | > 8
isolate (source animal id): 92 | > 8
isolate (source animal id): 93 | > 8
isolate (source animal id): 94 | > 8
isolate (source animal id): 95 | > 8
isolate (source animal id): 96 | > 8
isolate (source animal id): 97 | > 8
isolate (source animal id): 189 | > 8
isolate (source animal id): 190 | > 8
isolate (source animal id): 191 | 4 (≈ 11.2 µM)
isolate (source animal id): 192 | > 8
isolate (source animal id): 193 | > 8
isolate (source animal id): 194 | 4 (≈ 11.2 µM)
isolate (source animal id): 195 | 4 (≈ 11.2 µM)
isolate (source animal id): 196 | > 8
isolate (source animal id): 197 | > 8
isolate (source animal id): 198 | > 8
isolate (source animal id): 199 | > 8
isolate (source animal id): 200 | > 8
isolate (source animal id): 201 | 4 (≈ 11.2 µM)
isolate (source animal id): 202 | 4 (≈ 11.2 µM)
isolate (source animal id): 203 | > 8
isolate (source animal id): 204 | 4 (≈ 11.2 µM)
isolate (source animal id): 205 | > 8
isolate (source animal id): 206 | 4 (≈ 11.2 µM)
isolate (source animal id): 207 | > 8
isolate (source animal id): 208 | 4 (≈ 11.2 µM)
isolate (source animal id): 209 | 4 (≈ 11.2 µM)
isolate (source animal id): 210 | 4 (≈ 11.2 µM)
isolate (source animal id): 211 | > 8
isolate (source animal id): 212 | > 8
isolate (source animal id): 213 | > 8
isolate (source animal id): 214 | 4 (≈ 11.2 µM)
isolate (source animal id): 215 | 4 (≈ 11.2 µM)
isolate (source animal id): 216 | > 8
isolate (source animal id): 217 | 4 (≈ 11.2 µM)
isolate (source animal id): 218 | 4 (≈ 11.2 µM)
isolate (source animal id): 219 | > 8
isolate (source animal id): 220 | > 8
isolate (source animal id): 221 | 4 (≈ 11.2 µM)
isolate (source animal id): 222 | 2 (≈ 5.58 µM)
isolate (source animal id): 223 | > 8
isolate (source animal id): 224 | > 8
isolate (source animal id): 225 | > 8
isolate (source animal id): 226 | > 8
isolate (source animal id): 227 | > 8
isolate (source animal id): 228 | > 8
isolate (source animal id): 229 | > 8
isolate (source animal id): 230 | > 8
isolate (source animal id): 231 | > 8
isolate (source animal id): 232 | > 8
isolate (source animal id): 233 | > 8
isolate (source animal id): 234 | > 8
isolate (source animal id): 235 | > 8
isolate (source animal id): 236 | > 8
isolate (source animal id): 237 | > 8
isolate (source animal id): 238 | > 8
isolate (source animal id): 239 | 4 (≈ 11.2 µM)
isolate (source animal id): 240 | > 8
isolate (source animal id): 241 | > 8
isolate (source animal id): 242 | 4 (≈ 11.2 µM)
isolate (source animal id): 243 | 4 (≈ 11.2 µM)
isolate (source animal id): 244 | 8 (≈ 22.3 µM)
isolate (source animal id): 245 | > 8
isolate (source animal id): 246 | > 8
isolate (source animal id): 247 | > 8
isolate (source animal id): 248 | > 8
isolate (source animal id): 249 | 8 (≈ 22.3 µM)
isolate (source animal id): 250 | 4 (≈ 11.2 µM)
isolate (source animal id): 251 | > 8
isolate (source animal id): 252 | > 8
isolate (source animal id): 253 | > 8
isolate (source animal id): 254 | > 8
isolate (source animal id): 255 | > 8
isolate (source animal id): 256 | > 8
isolate (source animal id): 257 | > 8
isolate (source animal id): 258 | 8 (≈ 22.3 µM)
isolate (source animal id): 259 | > 8
isolate (source animal id): 260 | > 8
isolate (source animal id): 261 | > 8
isolate (source animal id): 262 | > 8
isolate (source animal id): 263 | > 8
isolate (source animal id): 264 | 4 (≈ 11.2 µM)
isolate (source animal id): 265 | > 8
isolate (source animal id): 266 | 2 (≈ 5.58 µM)
isolate (source animal id): 267 | > 8
isolate (source animal id): 268 | > 8
isolate (source animal id): 269 | > 8
isolate (source animal id): 270 | > 8
isolate (source animal id): 271 | > 8
isolate (source animal id): 272 | 4 (≈ 11.2 µM)
isolate (source animal id): 273 | 4 (≈ 11.2 µM)
isolate (source animal id): 274 | > 8
isolate (source animal id): 275 | > 8
isolate (source animal id): 276 | > 8
isolate (source animal id): 277 | > 8
isolate (source animal id): 278 | 4 (≈ 11.2 µM)
isolate (source animal id): 279 | > 8
isolate (source animal id): 280 | > 8
isolate (source animal id): 281 | > 8
isolate (source animal id): 282 | 4 (≈ 11.2 µM)
isolate (source animal id): 283 | 8 (≈ 22.3 µM)
isolate (source animal id): 284 | > 8
isolate (source animal id): 285 | 2 (≈ 5.58 µM)
isolate (source animal id): 286 | 8 (≈ 22.3 µM)
isolate (source animal id): 287 | > 8
isolate (source animal id): 288 | 4 (≈ 11.2 µM)
isolate (source animal id): 289 | 2 (≈ 5.58 µM)
isolate (source animal id): 290 | > 8
isolate (source animal id): 291 | > 8
isolate (source animal id): 292 | > 8
isolate (source animal id): 293 | > 8
isolate (source animal id): 294 | > 8
isolate (source animal id): 295 | > 8
isolate (source animal id): 296 | > 8
isolate (source animal id): 297 | 8 (≈ 22.3 µM)
isolate (source animal id): 298 | > 8
isolate (source animal id): 299 | > 8
isolate (source animal id): 300 | > 8
isolate (source animal id): 301 | > 8
isolate (source animal id): 302 | > 8
isolate (source animal id): 303 | 2 (≈ 5.58 µM)
isolate (source animal id): 304 | > 8
isolate (source animal id): 305 | 2 (≈ 5.58 µM)
isolate (source animal id): 306 | 4 (≈ 11.2 µM)
isolate (source animal id): 307 | > 8
isolate (source animal id): 308 | > 8
isolate (source animal id): 309 | > 8
isolate (source animal id): 310 | 4 (≈ 11.2 µM)
isolate (source animal id): 311 | > 8
isolate (source animal id): 312 | > 8
isolate (source animal id): 313 | 4 (≈ 11.2 µM)
isolate (source animal id): 314 | > 8
isolate (source animal id): 315 | 4 (≈ 11.2 µM)
isolate (source animal id): 316 | > 8
isolate (source animal id): 317 | > 8
isolate (source animal id): 318 | > 8
isolate (source animal id): 319 | > 8
isolate (source animal id): 320 | 4 (≈ 11.2 µM)
isolate (source animal id): 321 | > 8
isolate (source animal id): 322 | > 8
isolate (source animal id): 323 | 2 (≈ 5.58 µM)
isolate (source animal id): 324 | > 8
isolate (source animal id): 325 | 2 (≈ 5.58 µM)
isolate (source animal id): 326 | > 8
isolate (source animal id): 327 | > 8
isolate (source animal id): 328 | 2 (≈ 5.58 µM)
isolate (source animal id): 329 | > 8
isolate (source animal id): 330 | > 8
isolate (source animal id): 331 | > 8
isolate (source animal id): 332 | 4 (≈ 11.2 µM)
isolate (source animal id): 333 | 4 (≈ 11.2 µM)
isolate (source animal id): 334 | > 8
isolate (source animal id): 335 | > 8
isolate (source animal id): 336 | > 8
isolate (source animal id): 337 | > 8
isolate (source animal id): 338 | > 8
isolate (source animal id): 339 | > 8
isolate (source animal id): 340 | > 8
isolate (source animal id): 341 | 1 (≈ 2.79 µM)
